PubChem BioAssay AID504774 – Drosophila RNAi Screening Center | 2011

Test: 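Fly genes whose loss alters survival after alkylation damage to DNA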 (primary screen)
System: Drosophila Kc167 cells
Reagents: long dsRNA against Drosophila genes, about 0.25 µg dsRNA per well
Timing: about 6 days: 3 days knock-down, then 3 days with or without MMS
Conditions: methyl methanesulphonate 0.004% (w/v) for 3 days after knock-down
Read-out: 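Viability in wells given MMS, read as ATP luminescence, normalised by quantiles plate by plate and averaged across replicates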
Scale: mean viability with MMS: higher = more surviving cells after MMS
The deposit covers about 23,000 reagents; shown is an unselected part of those with a known target gene and a result. 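Values are quantile-normalised luminescence on an arbitrary scale; higher means more cells surviving MMS.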 A plus sign joins genes that one reagent is predicted to hit. Not all columns of the deposit are shown.

After knock-down of Aduk [DRSC16451], the screen gave mean viability with MMS 3.37e6. CG12869 [DRSC06208] showed mean viability with MMS 3.56e6. For CG42458 [DRSC10335], the values are mean viability with MMS 3.02e6. After knock-down of CG42458 [DRSC23129], the record shows mean viability with MMS 3.56e6. CG42458 [DRSC23261] gave mean viability with MMS 3.26e6.

Single entries from the list.
Under “mean viability with MMS”, Aduk [DRSC16451] is entered as 3.37e6
Under “mean viability with MMS”, CG12869 [DRSC06208] shows 3.56e6

The results go on.
Depletion of hydra [DRSC20497] came out at: mean viability with MMS 3.54e6. GstD8 [DRSC16689] gave mean viability with MMS 3.68e6. With knock-down of Smvt [DRSC15426], the record shows mean viability with MMS 3.59e6. Depletion of CG6845 [DRSC08576] came out at: mean viability with MMS 3.49e6. For CG33255 (retired record) + hpRNA:CR32205 + hpRNA:CR32207 [DRSC09617], the values are mean viability with MMS 3.58e6. Knock-down of CG4704 [DRSC15628] came out at: mean viability with MMS 3.56e6.

Against Nup43 [DRSC16279], the entry reads mean viability with MMS 3.52e6. For Pburs [DRSC02483], the entry reads mean viability with MMS 3.62e6. With knock-down of CG31807 [DRSC01550] the results were mean viability with MMS 3.51e6.
